Experimental data: PubChem BioAssay AID1159584 (Peter MacCallum Cancer Centre, 2016)
This is a random part of about 18,000 reagents tested. The numbers tell different reagents against one gene apart. Further read-outs or replicates are left out here. The record does not give: the amount of reagent, the time to read-out.

Test: 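Knock-downs that harm CDH1-null cells more than parental MCF10A cells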 (primary screen)
System: human MCF10A breast epithelial cells, parental and CDH1-null
Knock-down reagent: siRNA against human genes
Read-out: 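Cell viability by CellTiter-Glo ATP luminescence, each line scaled to the mean of mock wells across plates, then CDH1-null over parental ratio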
Scale: CDH1-null / parental viability ratio: higher = CDH1-null cells survive relatively better than parental

gene symbol,reagent,CDH1-null / parental viability ratio
GBP1 (guanylate binding protein 1),1,1.06
BTBD17 (BTB domain containing 17),1,1.39
FOXP4 (forkhead box P4),1,1.25
HOXD13 (homeobox D13),1,1.04
HSF1 (heat shock transcription factor 1),1,0.98
GMPPA (GDP-mannose pyrophosphorylase A),1,1.29
PIP5K1B (phosphatidylinositol-4-phosphate 5-kinase type 1 beta),1,1.03
SURF1 (SURF1 cytochrome c oxidase assembly factor),1,0.9
OR10H4 (olfactory receptor family 10 subfamily H member 4),1,1.09
MRTFA (myocardin related transcription factor A),1,1.05
ADGRL1 (adhesion G protein-coupled receptor L1),1,0.76
MECOM (MDS1 and EVI1 complex locus),1,0.92
MECOM (MDS1 and EVI1 complex locus),2,1.12
ARIH2 (ariadne RBR E3 ubiquitin protein ligase 2),1,0.92
MID1 (midline 1),1,0.96
MFN2 (mitofusin 2),1,0.83
DPPA4 (developmental pluripotency associated 4),1,1.09
ESAM (endothelial cell adhesion molecule),1,1.14
JMJD1C (jumonji domain containing 1C),1,0.88
ACADVL (acyl-CoA dehydrogenase very long chain),1,0.97
KIRREL2 (kirre like nephrin family adhesion molecule 2),1,1.23
FOXD4L3 (forkhead box D4 like 3),1,0.96
FOXD4L3 (forkhead box D4 like 3),2,1.09
GEMIN2 (gem nuclear organelle associated protein 2),1,1.12
EIF2B5 (eukaryotic translation initiation factor 2B subunit epsilon),1,0.88
TUBA3E (tubulin alpha 3e),1,1.4
SLC16A8,1,0.87
SLC6A7,1,1.35
SERINC3 (serine incorporator 3),1,1.08
FXR1 (FMR1 autosomal homolog 1),1,1.1
M1AP (meiosis 1 associated protein),1,1.09
IL27RA (interleukin 27 receptor subunit alpha),1,1.33
HDLBP (high density lipoprotein binding protein),1,1.04
"TEX14 (testis expressed 14, intercellular bridge forming factor)",1,0.88
SPAG4 (sperm associated antigen 4),1,1.43
PLCXD1,1,1.03
PHYHD1 (phytanoyl-CoA dioxygenase domain containing 1),1,1.05
EDDM3B (epididymal protein 3B),1,1.33
PRRX1 (paired related homeobox 1),1,1.11
COPE (coat protein complex I subunit epsilon),1,0.96
PTF1A (pancreas associated transcription factor 1a),1,1
OR7G2 (olfactory receptor family 7 subfamily G member 2),1,1.02
SLC25A35,1,1.12
DAZAP2 (DAZ associated protein 2),1,1.11
TCF19 (transcription factor 19),1,1
UPP1 (uridine phosphorylase 1),1,1.37
FERMT3 (FERM domain containing kindlin 3),1,0.77
SOCS3 (suppressor of cytokine signaling 3),1,0.93
ZNF521 (zinc finger protein 521),1,0.97
CERS2 (ceramide synthase 2),1,0.99
KRTAP12-4 (keratin associated protein 12-4),1,1.04
SYNRG (synergin gamma),1,1.1
CYTH4 (cytohesin 4),1,0.73
SPTLC3 (serine palmitoyltransferase long chain base subunit 3),1,1.03
DYNC2I2 (dynein 2 intermediate chain 2),1,1.13
ATP8B1 (ATPase phospholipid transporting 8B1),1,1.03
CCDC50 (coiled-coil domain containing 50),1,0.83
CFL1 (cofilin 1),1,0.64
NDUFA10 (NADH:ubiquinone oxidoreductase subunit A10),1,0.71
DCANP1 (dendritic cell associated nuclear protein 1),1,0.95
AVPR1B (arginine vasopressin receptor 1B),1,0.77
OR6C70 (olfactory receptor family 6 subfamily C member 70),1,0.75
BLM (BLM RecQ like helicase),1,1.04
FADS3 (fatty acid desaturase 3),1,0.67
CLCN2 (chloride voltage-gated channel 2),1,1.18
"RAP2A (RAP2A, member of RAS oncogene family)",1,0.99
CD207 (CD207 molecule),1,0.79
MORC4 (MORC family CW-type zinc finger 4),1,0.95
MMP19 (matrix metallopeptidase 19),1,1.36
PBRM1 (polybromo 1),1,1.15
TRIM16 (tripartite motif containing 16),1,1.36
KATNB1 (katanin regulatory subunit B1),1,1
IFITM3 (interferon induced transmembrane protein 3),1,1
ACTMAP (actin maturation protease),1,1.19
CCDC171 (coiled-coil domain containing 171),1,0.91
MRPL39 (mitochondrial ribosomal protein L39),1,1.08
FAM217B (family with sequence similarity 217 member B),1,0.57
IRX6 (iroquois homeobox 6),1,1.06
CNTN1 (contactin 1),1,1.1
ZNF765 (zinc finger protein 765),1,1.17
FAF2 (Fas associated factor family member 2),1,0.88
"PPP3R2 (protein phosphatase 3 regulatory subunit B, beta)",1,1.14
MAGEH1 (MAGE family member H1),1,1.16
POMT1 (protein O-mannosyltransferase 1),1,1.28
FAT2 (FAT atypical cadherin 2),1,0.6
SLC45A2,1,1.04
NUP54 (nucleoporin 54),1,1.16

12 entries from above, ordered by “CDH1-null / parental viability ratio”, descending.
gene symbol,reagent,CDH1-null / parental viability ratio
BTBD17 (BTB domain containing 17),1,1.39
GMPPA (GDP-mannose pyrophosphorylase A),1,1.29
FOXP4 (forkhead box P4),1,1.25
OR10H4 (olfactory receptor family 10 subfamily H member 4),1,1.09
GBP1 (guanylate binding protein 1),1,1.06
MRTFA (myocardin related transcription factor A),1,1.05
HOXD13 (homeobox D13),1,1.04
PIP5K1B (phosphatidylinositol-4-phosphate 5-kinase type 1 beta),1,1.03
HSF1 (heat shock transcription factor 1),1,0.98
MECOM (MDS1 and EVI1 complex locus),1,0.92
SURF1 (SURF1 cytochrome c oxidase assembly factor),1,0.9
ADGRL1 (adhesion G protein-coupled receptor L1),1,0.76
